pIC50: −log10 of the molar value. For at least one compound, name, drawing or mass did not settle the structure. Square brackets hold non-standard residues; d marks the D form. Peptide text beside a SMILES is read from it. Cha = N[C@@H](CC1CCCCC1)C(=O)O; Mpa = O=C(O)CCS
Target: T1, thrombin receptor (Homo sapiens, UniProt P25116)
T1 construct: In this assay, washed human platelets are prepared by the method of Baenzinger; endogenous in cells; host or cells: washed human platelets
T1 sequence (P25116 22-425): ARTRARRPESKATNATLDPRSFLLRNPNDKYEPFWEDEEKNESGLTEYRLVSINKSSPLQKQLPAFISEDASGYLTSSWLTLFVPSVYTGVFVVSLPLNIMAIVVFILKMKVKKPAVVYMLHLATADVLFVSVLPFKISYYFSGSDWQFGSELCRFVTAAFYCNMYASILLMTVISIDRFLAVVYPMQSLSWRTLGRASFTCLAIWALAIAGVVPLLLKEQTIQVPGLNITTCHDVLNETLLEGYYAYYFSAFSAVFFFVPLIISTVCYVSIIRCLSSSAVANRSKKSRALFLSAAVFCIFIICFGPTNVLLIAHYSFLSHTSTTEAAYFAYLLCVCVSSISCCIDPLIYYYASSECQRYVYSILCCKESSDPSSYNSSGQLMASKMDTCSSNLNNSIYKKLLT
Assay: Platelet activation/aggregation assays in the presence of thrombin, antagonist peptides
Assay type: cell-based
Settings: platelets, read-out: IC50 (50% inhibition of activation or aggregation)
Protocol: Platelet Aggregation: In this assay, washed human platelets are prepared by the method of Baenzinger, M. G., Meth Enzymol (1974) 31:149–155, or as described by Charo, I. F., et al., J Clin Invest (1977) 63:866–873.
Washed platelets are suspended in modified Tyrode's buffer, pH 7.4 with 2 mM magnesium and 1 mM calcium at a concentration of 10^8 platelets/ml.
About 20 μl Chromolume® reagent (Chronolog Corporation, Havertown, Pa.) is added. In addition to measuring aggregation, ATP secretion is assessed. […] Platelet ATP secretion is measured in a lumiaggregometer as luminescence signal. […] Preincubation is not necessary for testing agonists or antagonists which interact directly with the receptor.
Platelet Aggregation Assay Using Microtiter Plates: Thrombin- or agonist-mediated platelet aggregation as measured with washed platelets in 96-well microtiter plates was performed as described (Fratantoni, J. C. et al., Am J Clin Pathol (1990) 94:613–617).

N=C(N)NCCC[C@H](NC(=O)[C@H](CC1CCCCC1)NC(=O)[C@H](CC1CCCCC1)NC(=O)[C@H](Cc1ccccc1)NC(=O)CCS)C(=O)N[C@@H](CCCCN)C(=O)N1CCC[C@H]1C(=O)N[C@@H](CC(N)=O)C(=O)N[C@@H](CC(=O)O)C(=O)O [Mpr-F(Cha) (Cha)RKPND-OH] ([Mpa]F[Cha][Cha]RKPND-OH)
pIC50: 5.00

N=C(N)NCCC[C@H](NC(=O)[C@H](CC1CCCCC1)NC(=O)[C@H](CC1CCCCC1)NC(=O)[C@H](Cc1ccccc1)NC(=O)CCS)C(=O)N[C@@H](CCCCN)C(=O)N1CCC[C@H]1C(=O)N[C@@H](CC(N)=O)C(=O)N[C@@H](CCC(=O)O)C(=O)N[C@@H](CCCCN)C(N)=O [Mpr-P(Cha) (Cha)RKPNEK-NH2]
pIC50: 5.00

— patent US7119182B1 (The Regents of the University of California, priority 1991, dated 2006)
